For some assays here: Where cells or extracts were used, other partners may take part. For some assays here: For at least one entry, the source does not settle the construct or the ends of the probe. For some assays here: A negative result means that nothing was seen under these conditions.
What was measured:
[1] = test system: glycoprotein IIb/IIIa on activated platelets (Homo sapiens); experiment: filter binding; conditions: 2'-F pyrimidines; protein on the cell surface; label: 5'-32P
[2] = molecular target: von Willebrand factor (in vivo, mouse) (Mus musculus) (UniProt Q8CIZ8); experiment: activity in cells; conditions: 2'-F pyrimidines; 5'-cholesterol; mouse FeCl3 carotid model, 3 mg/kg, patency kept 60 min; increased tail bleeding; protein in cells; variant of 9.14 T10
[3] = molecular target: von Willebrand factor (VWF) (Homo sapiens) (UniProt P04275); experiment: activity in cells; conditions: 2'-F pyrimidines, purified native protein, protein details: Haematologic Technologies Inc. (factor VIII free)
[4] = molecular target: VWF SPIII fragment (V8 protease) (UniProt P04275); experiment: filter binding; conditions: 2'-F pyrimidines; 37 C, 2 mM CaCl2; purified native protein; label: 5'-32P
[5] = molecular target: VWF SPI fragment (V8 protease + C-terminal 455 residues of SPIII) (UniProt P04275); experiment: filter binding; conditions: 2'-F pyrimidines, purified native protein, label: 5'-32P
[6] = molecular target: von Willebrand factor (VWF) (Homo sapiens) (UniProt P04275); experiment: FP; conditions: 2'-F pyrimidines; purified native protein; protein details: Haematologic Technologies Inc. (factor VIII free); label: 5'-32P
[7] = molecular target: von Willebrand factor (VWF) (Homo sapiens) (UniProt P04275); experiment: filter binding; conditions: 2'-F pyrimidines; nitrocellulose filter binding, 37 C, 2 mM CaCl2; purified native protein; protein details: Haematologic Technologies Inc. (factor VIII free); label: 5'-32P

Chains of the proteins cited; added tags and fusions are not shown. Chains listed by the source or under a name are the forms on record and can include a tag or linker. Residues count along the entry.
UniProt Q8CIZ8, 764-2813: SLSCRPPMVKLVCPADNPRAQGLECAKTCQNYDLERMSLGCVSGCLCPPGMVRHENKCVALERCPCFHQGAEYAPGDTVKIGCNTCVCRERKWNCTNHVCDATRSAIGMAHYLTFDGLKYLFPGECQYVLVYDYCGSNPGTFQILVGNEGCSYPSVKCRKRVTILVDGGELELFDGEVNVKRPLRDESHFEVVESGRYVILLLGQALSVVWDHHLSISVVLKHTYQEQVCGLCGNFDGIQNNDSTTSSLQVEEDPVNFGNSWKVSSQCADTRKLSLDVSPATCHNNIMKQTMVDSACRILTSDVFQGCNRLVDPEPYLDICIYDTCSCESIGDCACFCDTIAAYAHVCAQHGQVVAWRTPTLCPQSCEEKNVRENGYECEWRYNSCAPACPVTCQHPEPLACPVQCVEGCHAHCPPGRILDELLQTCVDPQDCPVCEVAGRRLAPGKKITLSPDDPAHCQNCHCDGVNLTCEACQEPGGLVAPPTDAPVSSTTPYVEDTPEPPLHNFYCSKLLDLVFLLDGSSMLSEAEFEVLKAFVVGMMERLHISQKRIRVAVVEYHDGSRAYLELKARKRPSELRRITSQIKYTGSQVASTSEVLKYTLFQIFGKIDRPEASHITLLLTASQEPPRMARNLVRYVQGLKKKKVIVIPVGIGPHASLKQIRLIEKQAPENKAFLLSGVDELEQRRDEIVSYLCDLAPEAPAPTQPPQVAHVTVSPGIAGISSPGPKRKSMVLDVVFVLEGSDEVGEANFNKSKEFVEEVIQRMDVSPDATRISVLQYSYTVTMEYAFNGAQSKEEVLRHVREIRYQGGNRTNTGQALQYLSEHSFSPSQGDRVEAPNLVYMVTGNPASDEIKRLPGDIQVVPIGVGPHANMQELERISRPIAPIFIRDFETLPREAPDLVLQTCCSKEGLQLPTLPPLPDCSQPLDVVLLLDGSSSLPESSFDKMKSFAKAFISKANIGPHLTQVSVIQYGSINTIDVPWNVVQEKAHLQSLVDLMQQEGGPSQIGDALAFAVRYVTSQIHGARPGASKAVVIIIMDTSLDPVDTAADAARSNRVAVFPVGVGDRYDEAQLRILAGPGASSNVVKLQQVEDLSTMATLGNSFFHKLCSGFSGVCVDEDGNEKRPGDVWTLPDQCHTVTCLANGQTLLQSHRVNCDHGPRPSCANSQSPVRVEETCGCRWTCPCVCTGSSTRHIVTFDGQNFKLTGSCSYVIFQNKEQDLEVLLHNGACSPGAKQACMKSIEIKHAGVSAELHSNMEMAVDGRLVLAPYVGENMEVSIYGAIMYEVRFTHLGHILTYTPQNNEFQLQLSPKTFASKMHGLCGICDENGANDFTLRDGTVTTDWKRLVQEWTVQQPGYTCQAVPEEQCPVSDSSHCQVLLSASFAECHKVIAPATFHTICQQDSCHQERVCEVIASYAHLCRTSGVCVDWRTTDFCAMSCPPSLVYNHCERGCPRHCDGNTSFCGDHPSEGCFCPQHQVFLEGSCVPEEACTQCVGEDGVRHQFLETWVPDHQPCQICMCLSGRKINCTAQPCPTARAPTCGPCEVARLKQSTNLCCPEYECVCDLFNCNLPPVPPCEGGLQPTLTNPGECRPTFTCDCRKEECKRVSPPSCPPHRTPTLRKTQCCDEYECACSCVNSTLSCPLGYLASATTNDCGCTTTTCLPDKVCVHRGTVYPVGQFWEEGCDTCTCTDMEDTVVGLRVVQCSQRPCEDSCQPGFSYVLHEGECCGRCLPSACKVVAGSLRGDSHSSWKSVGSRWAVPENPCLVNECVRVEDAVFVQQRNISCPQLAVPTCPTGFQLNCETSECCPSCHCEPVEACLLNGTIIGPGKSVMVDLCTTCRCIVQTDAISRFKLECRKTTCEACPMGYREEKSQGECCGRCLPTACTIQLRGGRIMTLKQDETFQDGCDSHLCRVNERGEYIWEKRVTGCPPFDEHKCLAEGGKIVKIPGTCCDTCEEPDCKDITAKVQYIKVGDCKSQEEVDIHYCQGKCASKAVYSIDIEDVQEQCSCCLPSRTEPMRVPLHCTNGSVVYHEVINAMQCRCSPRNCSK
glycoprotein IIb/IIIa on activated platelets (Homo sapiens), one chain, as listed by the source, chain 2 of 3: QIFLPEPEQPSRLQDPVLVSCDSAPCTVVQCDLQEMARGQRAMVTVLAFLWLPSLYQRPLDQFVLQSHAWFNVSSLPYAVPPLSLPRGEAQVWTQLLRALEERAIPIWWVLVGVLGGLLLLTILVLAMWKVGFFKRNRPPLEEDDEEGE
glycoprotein IIb/IIIa on activated platelets (Homo sapiens), one chain, as listed by the source, chain 3 of 3: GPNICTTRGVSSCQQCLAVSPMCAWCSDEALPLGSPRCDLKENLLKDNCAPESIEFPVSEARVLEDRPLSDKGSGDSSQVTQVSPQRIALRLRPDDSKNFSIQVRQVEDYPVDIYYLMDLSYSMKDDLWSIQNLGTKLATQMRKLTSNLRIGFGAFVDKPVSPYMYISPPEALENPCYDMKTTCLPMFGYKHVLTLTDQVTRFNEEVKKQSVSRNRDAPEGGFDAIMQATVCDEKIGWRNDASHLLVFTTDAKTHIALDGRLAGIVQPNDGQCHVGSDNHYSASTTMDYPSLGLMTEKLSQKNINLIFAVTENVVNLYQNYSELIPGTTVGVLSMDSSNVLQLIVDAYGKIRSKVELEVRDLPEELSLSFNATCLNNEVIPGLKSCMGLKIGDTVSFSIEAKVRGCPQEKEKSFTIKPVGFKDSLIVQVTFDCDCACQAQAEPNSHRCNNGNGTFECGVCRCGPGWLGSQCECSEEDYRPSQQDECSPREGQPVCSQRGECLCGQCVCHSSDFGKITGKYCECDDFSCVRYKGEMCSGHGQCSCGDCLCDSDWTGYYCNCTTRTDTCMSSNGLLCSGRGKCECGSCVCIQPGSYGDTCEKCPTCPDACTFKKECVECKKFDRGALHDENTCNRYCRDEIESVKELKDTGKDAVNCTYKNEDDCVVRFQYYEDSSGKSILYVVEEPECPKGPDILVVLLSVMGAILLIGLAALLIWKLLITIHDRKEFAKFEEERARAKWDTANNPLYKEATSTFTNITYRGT

“GGGAGGACGAUGCGGACAGAUCUACCCGAGACAAACAUCCCACCCUCCGACAGACGACUCGCUGAGGAUCC [C6]”: binds [1].
“GGGAGGACGAUGCGGUAUAACCGUUCUAGCGCUAAUGACACUAUAGCAUCCCCGUCAGACGACUCGCUGAGGAUCC [C2]”: binds [1].
In the case of “GGGAGGUGGACGAACUGCCCUCAGCUACUUUCAUGUUGCUGACGCACAGACGACUCGCUG [Ch-9.14-T10]”, the “functional effect of the aptamer” value [2] is reported as “active” and the “functional effect of the aptamer” value ([3]; 5'-cholesterol, PFA-100 complete inhibition at 50 nM, reversed by AO1 and CDP, variant of 9.14 T10) is reported as “active”.
“GGGAGGACGAUGCGGUGCCACAUGCCUCAGAUACAGCACGCACCUUCGACCUAAUCAGACGACUCGCUGAGGAUCC [C8]”: binds [1].
“GGGAGGACGAUGCGGUCCUAAGAUUAAAUACGCCACGGCUCACUUACACACCAGCAGACGACUCGCUGAGGAUCC [C7]”: binds [1].
With “GGGAGGUGGACGAACUGCCCUCAGCUACUUUCAUGUUGCUGACGCACAGACGACUCGCUG [9.14 T10]” the “functional effect of the aptamer” value ([3]; PFA-100 inhibition at 50 nM, variant of VWF …) was “active”.
In the case of “GGGAGGACGAUGCGGAUCGCGCUCUCCUGCUUAAGCAGCUAUCAAAUAGCCCACUCAGACGACUCGCUGAGGAUCC [VWF R9.3]”, the binding result [4] is reported as “binds”, the binding result ([5]; 37 C, 2 mM CaCl2) is reported as “no binding” and the Kd [6] is reported as 1.2 nM. For the same sequence, the functional effect of the aptamer (s closing time) ([3]; PFA-100 complete inhibition above 40 nM, RIPA blocked at 250 nM, no effect on collagen, ADP, thrombin aggregation) was greater than 300.
“GGGAGGACGAUGCGGACCUGCUAGCAGUGGCGCGAAUAAACCAUCGCAGCAUCAACAGACGACUCGCUGAGGAUCC [C4]”: binds [1].
“GGGAGGACGAUGCGGUCCCUUGGAUGAGACUAACAACCUACCACAUCCUAUACUCCAGACGACUCGCUGAGGAUCC [C9]”: binds [1].
With “GGGAGGACGAUGCGGUAUAGACCACAGCCUGAGAUUAACCACCAACCCAGGACUCAGACGACUCGCUGAGGAUCC [VWF R9.4]” the binding result [4] was “binds”, the binding result ([5]; maps near A3 domain) was “binds” and the Kd [7] was 1.9 nM.
Sequence “GGGAGGACGAUGCGGUGCUCCUUGGCCUUAGCCCUGGAACCAUCAAUCCUCUUCGCAGACGACUCGCUGAGGAUCC [VWF R9.18]” has a Kd [7] of 278 nM.
